Test results as given in publication doi:10.1101/2020.01.27.920827 (bioRxiv, 2020).
Read-outs that look alike come from different tables or passages of the source. These are yes or no findings as the source states them, for the method shown.

Protein sequences, listed by entry. Tags and fused reporters are not part of them. Lines headed by an entry give the natural chain unless they say otherwise; changes in a name come on top. Chains listed by the source or under a name are the forms on record and can include a tag or linker. Residues count along the entry.
epsin1 ENTH domain, wild type (Rat Epsin1 WT ENTH 1-164) (O88339, residues 1-164): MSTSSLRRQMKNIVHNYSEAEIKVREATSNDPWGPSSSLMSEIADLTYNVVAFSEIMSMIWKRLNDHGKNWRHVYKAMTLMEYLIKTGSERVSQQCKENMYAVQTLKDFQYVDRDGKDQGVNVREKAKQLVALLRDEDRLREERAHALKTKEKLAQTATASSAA
epsin1 ENTH domain R114A (O88339, form named): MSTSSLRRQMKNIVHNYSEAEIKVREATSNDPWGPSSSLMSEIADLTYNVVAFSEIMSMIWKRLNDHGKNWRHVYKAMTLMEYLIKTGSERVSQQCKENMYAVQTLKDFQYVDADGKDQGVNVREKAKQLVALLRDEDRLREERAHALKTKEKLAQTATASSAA

Assays:
Test in all cases: SDS-resistant oligomer bands on SDS-PAGE after liposome co-sedimentation
[1] = molecular target: epsin1 ENTH domain, wild type (Rat Epsin1 WT ENTH 1-164) (rat) (UniProt O88339)
[2] = molecular target: epsin1 ENTH domain, wild type (Rat Epsin1 WT ENTH 1-164) (rat) (UniProt O88339); remark: listed apart in the source
[3] = molecular target: epsin1 ENTH domain R114A (rat) (UniProt O88339)

| Substance | binding [1] | binding [2] | binding [3] |
| --- | --- | --- | --- |
| epsin1 ENTH domain, wild type (Rat Epsin1 WT ENTH 1-164) (from UniProt O88339 1-164) (domain or fragment) | no binding (condition: LUVs without PS) | no binding (condition: without LUVs) |  |
| epsin1 ENTH domain R114A (from UniProt O88339 1-164) (domain or fragment) |  |  | no binding (tested: 20 μM) |
